Changes are numbered by the printed parent chain. Like-named read-outs stand apart in the source and are kept apart here. No constants are given. Whether binding was seen depends on the method and setting. Binding seen in cells or lysates may run through a third protein. Some results given as binding are weak or reduced against the parent protein; the word gives no strength. For some of these results: Sequences can lack the tags named with a protein.

Amino acid sequences for entries named in this document (tags omitted). Residues count along the entry.
UniProt P70460, residues 1-114: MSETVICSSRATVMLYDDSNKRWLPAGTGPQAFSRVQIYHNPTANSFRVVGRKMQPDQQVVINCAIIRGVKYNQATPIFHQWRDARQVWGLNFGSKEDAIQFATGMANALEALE
UniProt Q03173, residues 1-112: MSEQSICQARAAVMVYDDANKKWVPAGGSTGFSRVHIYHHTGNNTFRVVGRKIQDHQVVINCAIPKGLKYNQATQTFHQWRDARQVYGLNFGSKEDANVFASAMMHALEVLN
UniProt Q7L576: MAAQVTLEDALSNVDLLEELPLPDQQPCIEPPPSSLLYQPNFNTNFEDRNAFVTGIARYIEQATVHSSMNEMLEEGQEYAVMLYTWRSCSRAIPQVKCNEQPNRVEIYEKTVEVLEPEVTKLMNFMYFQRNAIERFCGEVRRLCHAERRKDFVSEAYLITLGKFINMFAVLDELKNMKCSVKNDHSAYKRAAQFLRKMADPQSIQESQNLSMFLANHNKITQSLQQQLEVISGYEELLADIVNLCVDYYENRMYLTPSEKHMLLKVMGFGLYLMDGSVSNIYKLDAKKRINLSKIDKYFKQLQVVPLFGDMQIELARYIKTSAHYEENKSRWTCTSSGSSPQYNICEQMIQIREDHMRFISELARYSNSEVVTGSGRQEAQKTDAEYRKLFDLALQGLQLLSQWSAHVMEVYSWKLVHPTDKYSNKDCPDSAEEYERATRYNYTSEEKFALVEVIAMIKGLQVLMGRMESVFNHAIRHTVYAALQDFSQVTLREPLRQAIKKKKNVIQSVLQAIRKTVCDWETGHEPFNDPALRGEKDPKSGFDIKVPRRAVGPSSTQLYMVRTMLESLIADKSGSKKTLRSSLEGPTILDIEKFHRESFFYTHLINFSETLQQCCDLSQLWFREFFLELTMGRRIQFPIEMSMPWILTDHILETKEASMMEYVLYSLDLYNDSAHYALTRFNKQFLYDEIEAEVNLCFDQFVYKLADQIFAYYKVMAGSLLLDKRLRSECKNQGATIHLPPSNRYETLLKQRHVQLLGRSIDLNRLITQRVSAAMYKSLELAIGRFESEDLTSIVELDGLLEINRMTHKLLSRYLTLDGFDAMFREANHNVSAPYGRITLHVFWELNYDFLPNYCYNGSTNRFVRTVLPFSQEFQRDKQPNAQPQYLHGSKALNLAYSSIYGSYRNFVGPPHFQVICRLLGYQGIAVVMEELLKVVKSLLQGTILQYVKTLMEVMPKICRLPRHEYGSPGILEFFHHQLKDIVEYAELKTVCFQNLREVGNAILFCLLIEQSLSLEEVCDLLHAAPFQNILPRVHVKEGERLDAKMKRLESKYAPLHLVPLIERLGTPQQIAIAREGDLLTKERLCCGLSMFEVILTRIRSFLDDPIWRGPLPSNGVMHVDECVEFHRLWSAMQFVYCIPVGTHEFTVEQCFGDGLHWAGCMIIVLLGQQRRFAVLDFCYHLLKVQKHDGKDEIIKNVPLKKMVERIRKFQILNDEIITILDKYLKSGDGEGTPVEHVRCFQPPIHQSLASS
UniProt Q96F07: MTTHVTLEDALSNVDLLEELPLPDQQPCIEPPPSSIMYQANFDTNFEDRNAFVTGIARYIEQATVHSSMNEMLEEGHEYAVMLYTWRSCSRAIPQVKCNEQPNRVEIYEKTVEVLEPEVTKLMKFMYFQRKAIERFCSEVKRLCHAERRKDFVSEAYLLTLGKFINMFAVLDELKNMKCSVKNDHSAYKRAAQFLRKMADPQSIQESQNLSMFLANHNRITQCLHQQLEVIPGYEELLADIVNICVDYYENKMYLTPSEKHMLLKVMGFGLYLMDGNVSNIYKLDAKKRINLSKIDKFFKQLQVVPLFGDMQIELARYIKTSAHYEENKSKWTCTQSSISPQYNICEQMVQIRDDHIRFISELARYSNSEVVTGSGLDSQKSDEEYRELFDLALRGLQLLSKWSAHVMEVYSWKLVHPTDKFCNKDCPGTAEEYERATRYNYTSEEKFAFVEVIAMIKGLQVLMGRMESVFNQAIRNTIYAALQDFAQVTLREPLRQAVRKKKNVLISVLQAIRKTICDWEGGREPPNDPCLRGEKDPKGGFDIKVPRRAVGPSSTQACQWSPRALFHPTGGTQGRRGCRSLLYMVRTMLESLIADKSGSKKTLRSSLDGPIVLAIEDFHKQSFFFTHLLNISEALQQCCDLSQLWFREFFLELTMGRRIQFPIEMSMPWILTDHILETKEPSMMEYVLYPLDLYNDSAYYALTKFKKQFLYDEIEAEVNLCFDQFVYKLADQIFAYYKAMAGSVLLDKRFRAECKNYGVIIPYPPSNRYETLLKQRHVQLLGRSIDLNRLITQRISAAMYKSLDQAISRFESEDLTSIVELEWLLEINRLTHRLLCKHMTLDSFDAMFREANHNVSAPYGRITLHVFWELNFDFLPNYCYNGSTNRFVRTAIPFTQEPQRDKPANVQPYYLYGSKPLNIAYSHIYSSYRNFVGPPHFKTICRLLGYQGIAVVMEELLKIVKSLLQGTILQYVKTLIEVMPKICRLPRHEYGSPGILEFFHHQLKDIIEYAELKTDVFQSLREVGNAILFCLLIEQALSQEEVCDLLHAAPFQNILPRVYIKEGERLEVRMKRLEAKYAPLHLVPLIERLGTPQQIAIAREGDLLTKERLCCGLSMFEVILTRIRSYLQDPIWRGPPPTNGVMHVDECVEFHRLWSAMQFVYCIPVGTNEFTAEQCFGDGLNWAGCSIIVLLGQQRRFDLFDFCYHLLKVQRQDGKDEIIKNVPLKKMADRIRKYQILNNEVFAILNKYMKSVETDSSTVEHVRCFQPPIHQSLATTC
UniProt Q9Y2A7: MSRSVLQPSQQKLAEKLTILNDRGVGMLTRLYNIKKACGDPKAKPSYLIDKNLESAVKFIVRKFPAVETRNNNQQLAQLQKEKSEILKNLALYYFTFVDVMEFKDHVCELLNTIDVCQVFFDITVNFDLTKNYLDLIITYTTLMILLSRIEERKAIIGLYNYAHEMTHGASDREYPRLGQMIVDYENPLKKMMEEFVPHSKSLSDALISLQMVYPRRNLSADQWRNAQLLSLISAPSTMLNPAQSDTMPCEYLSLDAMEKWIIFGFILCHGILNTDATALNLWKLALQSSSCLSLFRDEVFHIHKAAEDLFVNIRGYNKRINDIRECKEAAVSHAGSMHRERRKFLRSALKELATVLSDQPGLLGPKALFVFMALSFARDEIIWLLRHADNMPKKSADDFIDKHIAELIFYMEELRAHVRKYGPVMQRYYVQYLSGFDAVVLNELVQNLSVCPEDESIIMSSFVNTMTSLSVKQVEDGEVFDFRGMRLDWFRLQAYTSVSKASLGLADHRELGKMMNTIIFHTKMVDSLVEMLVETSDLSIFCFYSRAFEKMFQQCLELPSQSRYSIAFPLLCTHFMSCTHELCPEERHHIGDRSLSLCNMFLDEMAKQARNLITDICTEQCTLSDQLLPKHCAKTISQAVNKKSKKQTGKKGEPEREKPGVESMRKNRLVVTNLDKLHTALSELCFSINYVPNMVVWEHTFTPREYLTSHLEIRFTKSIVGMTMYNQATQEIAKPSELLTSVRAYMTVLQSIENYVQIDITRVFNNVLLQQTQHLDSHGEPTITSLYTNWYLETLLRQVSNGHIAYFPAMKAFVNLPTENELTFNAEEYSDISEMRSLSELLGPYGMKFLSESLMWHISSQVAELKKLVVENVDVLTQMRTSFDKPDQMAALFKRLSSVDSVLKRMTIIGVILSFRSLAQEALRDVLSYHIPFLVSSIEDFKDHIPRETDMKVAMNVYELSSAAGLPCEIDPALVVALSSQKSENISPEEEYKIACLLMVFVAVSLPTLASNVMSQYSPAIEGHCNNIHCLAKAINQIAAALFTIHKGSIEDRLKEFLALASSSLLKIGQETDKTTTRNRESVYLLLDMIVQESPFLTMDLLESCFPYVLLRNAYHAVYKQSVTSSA
UniProt Q9Y6W5: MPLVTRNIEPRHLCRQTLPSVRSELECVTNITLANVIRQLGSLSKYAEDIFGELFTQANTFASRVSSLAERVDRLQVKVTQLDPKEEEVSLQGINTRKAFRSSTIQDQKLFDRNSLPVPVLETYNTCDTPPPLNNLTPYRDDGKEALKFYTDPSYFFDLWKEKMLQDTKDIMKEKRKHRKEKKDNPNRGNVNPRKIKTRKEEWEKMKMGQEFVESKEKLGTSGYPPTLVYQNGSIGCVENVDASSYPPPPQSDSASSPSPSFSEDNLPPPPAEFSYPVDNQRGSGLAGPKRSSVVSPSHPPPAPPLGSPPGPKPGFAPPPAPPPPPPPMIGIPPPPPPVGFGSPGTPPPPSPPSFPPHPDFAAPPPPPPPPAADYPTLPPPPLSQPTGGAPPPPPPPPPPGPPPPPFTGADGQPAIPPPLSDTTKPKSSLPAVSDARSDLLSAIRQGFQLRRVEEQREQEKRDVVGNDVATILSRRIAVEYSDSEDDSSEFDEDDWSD
UniProt Q8CBW3: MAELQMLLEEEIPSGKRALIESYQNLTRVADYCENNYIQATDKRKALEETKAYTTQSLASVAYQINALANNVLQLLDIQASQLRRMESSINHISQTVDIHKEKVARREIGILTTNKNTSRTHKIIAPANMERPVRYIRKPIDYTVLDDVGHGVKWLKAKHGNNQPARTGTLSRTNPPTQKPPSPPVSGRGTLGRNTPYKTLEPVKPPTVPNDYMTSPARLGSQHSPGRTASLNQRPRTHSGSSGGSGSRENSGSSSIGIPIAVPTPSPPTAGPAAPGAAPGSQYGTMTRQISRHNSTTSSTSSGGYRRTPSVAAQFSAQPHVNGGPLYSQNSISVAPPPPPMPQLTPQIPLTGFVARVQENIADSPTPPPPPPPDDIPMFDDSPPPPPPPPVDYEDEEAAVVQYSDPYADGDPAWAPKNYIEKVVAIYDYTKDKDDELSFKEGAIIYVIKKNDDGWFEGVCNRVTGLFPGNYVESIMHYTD
UniProt Q8BH43: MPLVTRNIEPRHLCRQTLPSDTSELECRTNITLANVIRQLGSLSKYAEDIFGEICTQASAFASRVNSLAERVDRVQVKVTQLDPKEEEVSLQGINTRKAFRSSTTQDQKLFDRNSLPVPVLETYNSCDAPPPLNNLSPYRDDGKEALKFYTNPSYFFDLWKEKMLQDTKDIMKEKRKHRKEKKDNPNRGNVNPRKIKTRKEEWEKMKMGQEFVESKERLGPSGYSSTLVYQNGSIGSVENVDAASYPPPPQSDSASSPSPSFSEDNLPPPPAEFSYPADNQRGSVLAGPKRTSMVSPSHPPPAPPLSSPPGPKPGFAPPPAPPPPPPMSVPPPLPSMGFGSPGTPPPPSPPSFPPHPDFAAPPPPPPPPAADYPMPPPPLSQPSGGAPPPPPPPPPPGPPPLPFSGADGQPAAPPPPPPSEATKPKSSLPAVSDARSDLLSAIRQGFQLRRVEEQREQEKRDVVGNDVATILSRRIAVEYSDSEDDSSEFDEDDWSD

Assay [1] deals with T1, NHSL3ΔSH3-EGFP (Abi SH3 domain binding site mutated) (mouse) (UniProt A2A7S8).
T1 sequence: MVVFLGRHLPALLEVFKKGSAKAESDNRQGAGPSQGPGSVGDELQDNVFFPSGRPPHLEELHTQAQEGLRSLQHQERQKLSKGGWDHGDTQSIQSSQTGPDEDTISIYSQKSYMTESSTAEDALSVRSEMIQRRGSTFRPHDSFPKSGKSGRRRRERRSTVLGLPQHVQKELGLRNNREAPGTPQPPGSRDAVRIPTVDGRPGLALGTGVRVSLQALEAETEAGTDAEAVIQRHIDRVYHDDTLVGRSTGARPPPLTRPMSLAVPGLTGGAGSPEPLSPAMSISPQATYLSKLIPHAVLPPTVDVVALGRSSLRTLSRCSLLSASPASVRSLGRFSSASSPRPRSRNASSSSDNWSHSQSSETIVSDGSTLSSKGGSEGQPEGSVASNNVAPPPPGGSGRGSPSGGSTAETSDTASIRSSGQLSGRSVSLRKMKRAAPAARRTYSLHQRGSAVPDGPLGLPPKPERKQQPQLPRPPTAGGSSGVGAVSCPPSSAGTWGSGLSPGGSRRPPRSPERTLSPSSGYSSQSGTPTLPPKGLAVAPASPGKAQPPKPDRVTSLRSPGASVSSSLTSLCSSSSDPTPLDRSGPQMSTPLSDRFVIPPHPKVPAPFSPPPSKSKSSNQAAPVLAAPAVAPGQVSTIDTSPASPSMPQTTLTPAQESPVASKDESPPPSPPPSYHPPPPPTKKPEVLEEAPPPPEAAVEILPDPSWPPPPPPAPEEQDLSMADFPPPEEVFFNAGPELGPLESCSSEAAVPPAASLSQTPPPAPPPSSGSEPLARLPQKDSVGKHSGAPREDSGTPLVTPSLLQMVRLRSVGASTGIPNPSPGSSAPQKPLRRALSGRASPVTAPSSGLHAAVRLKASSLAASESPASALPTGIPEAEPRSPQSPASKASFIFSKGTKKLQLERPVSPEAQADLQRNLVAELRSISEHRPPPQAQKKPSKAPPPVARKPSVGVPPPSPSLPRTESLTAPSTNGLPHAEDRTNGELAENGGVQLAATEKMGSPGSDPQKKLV
The experiment in a line: pull-down.

The target of assay [2] is T1, NHSL3ΔSH3-EGFP (Abi SH3 domain binding site mutated) (mouse). The experiment in a line: pull-down. The source holds these as a separate data set.
The target of assay [3] is T2, GST-tagged NHSL3 fragment 1 (mouse) (UniProt A2A7S8).
T2 sequence: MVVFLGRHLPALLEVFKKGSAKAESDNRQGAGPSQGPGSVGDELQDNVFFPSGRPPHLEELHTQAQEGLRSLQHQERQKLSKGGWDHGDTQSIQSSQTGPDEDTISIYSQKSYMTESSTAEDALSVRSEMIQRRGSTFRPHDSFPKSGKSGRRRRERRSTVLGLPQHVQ
The experiment in a line: pull-down.

Assay [4] has as its target NHSL3-EGFP (wild-type mouse NHSL3 isoform 1c, C-terminally tagged with EGFP) (mouse) (UniProt A2A7S8). The experiment in a line: co-IP.
Assay [5] concerns the target T3, NHSL3ΔSH3ΔFP4-1/2-EGFP (Abi SH3 binding site and both EVH1 binding motifs mutated) (mouse) (UniProt A2A7S8).
T3 sequence: T1 sequence with W708A, P709A, P710A, P711A, F726A, P727A, P728A
Description: co-IP.

For assay [6], the target named is T1, NHSL3ΔSH3-EGFP (Abi SH3 domain binding site mutated) (mouse). Description: co-IP.
In assay [7] the target is T4, NHSL3ΔFP4-1/2-EGFP (both EVH1 domain binding motifs mutated) (mouse) (UniProt A2A7S8).
T4 sequence: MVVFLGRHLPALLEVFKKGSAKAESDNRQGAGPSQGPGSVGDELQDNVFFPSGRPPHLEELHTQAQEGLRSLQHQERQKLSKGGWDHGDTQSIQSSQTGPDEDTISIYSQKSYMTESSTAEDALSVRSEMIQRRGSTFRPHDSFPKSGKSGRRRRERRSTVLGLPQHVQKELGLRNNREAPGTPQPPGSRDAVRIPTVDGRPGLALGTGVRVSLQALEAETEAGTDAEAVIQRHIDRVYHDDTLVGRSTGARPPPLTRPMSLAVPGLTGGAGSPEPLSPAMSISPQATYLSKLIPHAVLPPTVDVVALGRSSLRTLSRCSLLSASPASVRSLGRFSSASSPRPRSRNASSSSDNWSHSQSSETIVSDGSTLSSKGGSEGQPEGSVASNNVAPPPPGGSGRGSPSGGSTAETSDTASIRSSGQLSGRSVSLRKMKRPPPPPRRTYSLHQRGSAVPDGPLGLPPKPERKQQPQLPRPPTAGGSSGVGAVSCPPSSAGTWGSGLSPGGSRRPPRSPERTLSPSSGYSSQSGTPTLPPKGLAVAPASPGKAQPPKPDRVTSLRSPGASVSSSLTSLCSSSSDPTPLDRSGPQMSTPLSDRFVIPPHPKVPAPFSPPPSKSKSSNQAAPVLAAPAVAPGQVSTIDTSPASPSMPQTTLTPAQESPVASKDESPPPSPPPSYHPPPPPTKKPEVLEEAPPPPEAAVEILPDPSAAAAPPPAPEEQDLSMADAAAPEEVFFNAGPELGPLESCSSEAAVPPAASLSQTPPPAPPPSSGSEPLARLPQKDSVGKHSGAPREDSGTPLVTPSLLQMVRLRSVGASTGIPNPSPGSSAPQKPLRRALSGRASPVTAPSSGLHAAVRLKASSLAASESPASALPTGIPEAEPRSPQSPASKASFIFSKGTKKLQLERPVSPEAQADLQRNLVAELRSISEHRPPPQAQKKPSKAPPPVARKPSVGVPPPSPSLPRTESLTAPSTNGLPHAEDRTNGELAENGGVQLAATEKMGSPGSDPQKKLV
Description: co-IP.

Assay [8] has as its target T2, GST-tagged NHSL3 fragment 1 (mouse). The experiment in a line: pull-down. The source holds these as a separate data set.
In assay [9] the target is T1, NHSL3ΔSH3-EGFP (Abi SH3 domain binding site mutated) (mouse). The experiment in a line: pull-down. The source holds these as a separate data set.
The target of assay [10] is GST-EVH1 domain of VASP (1-114) (mouse) (UniProt P70460). Description: pull-down.
Assay [11] addresses T5, GST-EVH1 domain of EVL (1-113) (mouse) (UniProt P70429).
T5 sequence: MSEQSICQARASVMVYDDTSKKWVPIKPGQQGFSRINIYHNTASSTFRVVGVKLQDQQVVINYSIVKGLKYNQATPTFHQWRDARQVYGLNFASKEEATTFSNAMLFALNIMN
The experiment in a line: pull-down.

Assay [12] concerns the target GST-EVH1 domain of Mena (1-112) (mouse) (UniProt Q03173). The experiment in a line: pull-down.
Assay [13] deals with endogenous NHSL3 (mouse (endogenous in B16-F1)) (UniProt A2A7S8). Description: co-IP.

As for Myc-CYFIP1 (from UniProt Q7L576 1-1253), the binding entry in assay [1], in [2], in [3] and in [4] was “binds” throughout.

Myc-CYFIP2 (from UniProt Q96F07 1-1278): the binding entry in assay [2], in [5], in [6], in assay [4], in assay [7] and in assay [8] was “binds” throughout. The binding entry in assay [9] is “binds”.

For the substance Myc-Nap1 (from UniProt Q9Y2A7 1-1128), the binding entry in assay [1], in assay [3], in assay [5], in assay [6], in assay [4] and in [7] was “binds” throughout. Besides, the binding entry in assay [8] and in [9] was “binds” in each case.

For the substance “Myc-Scar/WAVE2 (from UniProt Q9Y6W5 1-498)”, the binding result in assay [5], in assay [6], in [4] and in [7] was “binds” throughout.

Consider “NHSL3-EGFP (wild-type mouse NHSL3 isoform 1c, C-terminally tagged with EGFP) (from UniProt A2A7S8 1-1013)”, for which the binding entry in assay [10] is “binds”; in assay [11], “no binding”; in assay [12], “binds”.

With “endogenous Abi1 (from UniProt Q8CBW3 1-481)”, the binding result in [13] was “binds”.

For the substance “endogenous Scar/WAVE2 (from UniProt Q8BH43 1-497)”, the binding result in [13] is “binds”.

These data come from doi:10.1101/2025.04.03.647056.
